# This is one part of the list.
# Key:
# Assay in all cases: glycan array binding signal (z-score within array); higher = stronger binding
# Details in all cases: glycan notation: IUPAC condensed, linker removed
# [1] = target: Gal(b1-3)GlcNAc(b1-6)GalNAc
# Outline: (§1)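 The binding signal is a Z-score computed within each array and averaged over linkers. Arrays of the same protein sequence at different concentrations or buffers were also averaged together. Data originate from 3228 arrays in the Consortium for Functional Glycomics database, kept only where the protein sequence was available.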
# [2] = target: Gal(b1-3)GlcNAc(b1-6)[Gal(b1-3)]GalNAc
# Outline: as §1
# [3] = target: Gal(b1-3)GlcNAc6S
# Outline: as §1
# [4] = target: Gal(b1-3)[Fuc(a1-4)]GlcNAc
# Outline: as §1
# [5] = target: Gal(b1-3)[Fuc(a1-4)]GlcNAc(b1-2)Man
# Outline: as §1
# [6] = target: Gal(b1-3)[Fuc(a1-4)]GlcNAc(b1-2)Man(a1-3)[Gal(b1-3)[Fuc(a1-4)]GlcNAc(b1-2)Man(a1-6)]Man(b1-4)GlcNAc(b1-4)[Fuc(a1-6)]GlcNAc
# Outline: as §1
# [7] = target: Gal(b1-3)[Fuc(a1-4)]GlcNAc(b1-3)Gal(b1-3)[Fuc(a1-4)]GlcNAc
# Outline: as §1
# [8] = target: Gal(b1-3)[Fuc(a1-4)]GlcNAc(b1-3)Gal(b1-4)[Fuc(a1-3)]GlcNAc
# Outline: as §1
# [9] = target: Gal(b1-3)[Fuc(a1-4)]GlcNAc(b1-6)GalNAc
# Outline: as §1
# [10] = target: Gal(b1-3)[GlcNAc(b1-6)]GalNAc
# Outline: as §1
# [11] = target: Gal(b1-3)[Neu5Ac(a2-6)]GalNAc
# Outline: as §1
# [12] = target: Gal(b1-3)[Neu5Ac(a2-6)]GlcNAc(b1-4)Gal(b1-4)Glc
# Outline: as §1
# [13] = target: Gal(b1-3)[Neu5Ac(b2-6)]GalNAc
# Outline: as §1
# [14] = target: Gal(b1-4)Gal
# Outline: as §1
# [15] = target: Gal(b1-4)GalNAc(a1-3)[Fuc(a1-2)]Gal(b1-4)GlcNAc
# Outline: as §1
# [16] = target: Gal(b1-4)GalNAc(b1-3)[Fuc(a1-2)]Gal(b1-4)GlcNAc
# Outline: as §1
# [17] = target: Gal(b1-4)Glc
# Outline: as §1
# [18] = target: Gal(b1-4)Glc6S
# Outline: as §1
# [19] = target: Gal(b1-4)GlcNAc
# Outline: as §1
# [20] = target: Gal(b1-4)GlcNAc(a1-6)Gal(b1-4)GlcNAc
# Outline: as §1
# [21] = target: Gal(b1-4)GlcNAc(b1-2)Man
# Outline: as §1
# [22] = target: Gal(b1-4)GlcNAc(b1-2)Man(a1-3)Man(b1-4)GlcNAc(b1-4)GlcNAc
# Outline: as §1
# [23] = target: Gal(b1-4)GlcNAc(b1-2)Man(a1-3)[Gal(b1-4)GlcNAc(b1-2)Man(a1-6)]Man(b1-4)GlcNAc(b1-4)GlcNAc
# Outline: as §1
# [24] = target: Gal(b1-4)GlcNAc(b1-2)Man(a1-3)[Gal(b1-4)GlcNAc(b1-2)Man(a1-6)]Man(b1-4)GlcNAc(b1-4)[Fuc(a1-6)]GlcNAc
# Outline: as §1
# [25] = target: Gal(b1-4)GlcNAc(b1-2)Man(a1-3)[Gal(b1-4)GlcNAc(b1-2)Man(a1-6)][Gal(b1-4)GlcNAc(b1-4)]Man(b1-4)GlcNAc(b1-4)[Fuc(a1-6)]GlcNAc
# Outline: as §1
# [26] = target: Gal(b1-4)GlcNAc(b1-2)Man(a1-3)[Gal(b1-4)GlcNAc(b1-2)Man(a1-6)][GlcNAc(b1-4)]Man(b1-4)GlcNAc(b1-4)[Fuc(a1-6)]GlcNAc
# Outline: as §1
# [27] = target: Gal(b1-4)GlcNAc(b1-2)Man(a1-3)[GlcNAc(b1-2)Man(a1-6)]Man(b1-4)GlcNAc(b1-4)GlcNAc
# Outline: as §1
# [28] = target: Gal(b1-4)GlcNAc(b1-2)Man(a1-3)[GlcNAc(b1-4)][Gal(b1-4)GlcNAc(b1-2)Man(a1-6)]Man(b1-4)GlcNAc(b1-4)GlcNAc
# Outline: as §1
# [29] = target: Gal(b1-4)GlcNAc(b1-2)Man(a1-3)[Man(a1-6)]Man(b1-4)GlcNAc(b1-4)GlcNAc
# Outline: as §1
# [30] = target: Gal(b1-4)GlcNAc(b1-2)Man(a1-6)Man(b1-4)GlcNAc(b1-4)GlcNAc
# Outline: as §1
# [31] = target: Gal(b1-4)GlcNAc(b1-2)Man(a1-6)[GlcNAc(b1-2)Man(a1-3)]Man(b1-4)GlcNAc(b1-4)GlcNAc
# Outline: as §1
# [32] = target: Gal(b1-4)GlcNAc(b1-2)Man(a1-6)[Man(a1-3)]Man(b1-4)GlcNAc(b1-4)GlcNAc
# Outline: as §1
# [33] = target: Gal(b1-4)GlcNAc(b1-2)[Gal(b1-4)GlcNAc(b1-4)]Man(a1-3)[Gal(b1-4)GlcNAc(b1-2)Man(a1-6)]Man(b1-4)GlcNAc(b1-4)GlcNAc
# Outline: as §1
# [34] = target: Gal(b1-4)GlcNAc(b1-2)[Gal(b1-4)GlcNAc(b1-4)]Man(a1-3)[Gal(b1-4)GlcNAc(b1-2)[Gal(b1-4)GlcNAc(b1-6)]Man(a1-6)]Man(b1-4)GlcNAc(b1-4)GlcNAc
# Outline: as §1
# [35] = target: Gal(b1-4)GlcNAc(b1-2)[Gal(b1-4)GlcNAc(b1-4)]Man(a1-3)[GlcNAc(b1-4)][Gal(b1-4)GlcNAc(b1-2)Man(a1-6)]Man(b1-4)GlcNAc(b1-4)GlcNAc
# Outline: as §1
# [36] = target: Gal(b1-4)GlcNAc(b1-2)[Gal(b1-4)GlcNAc(b1-4)]Man(a1-3)[GlcNAc(b1-4)][Gal(b1-4)GlcNAc(b1-2)[Gal(b1-4)GlcNAc(b1-6)]Man(a1-6)]Man(b1-4)GlcNAc(b1-4)GlcNAc
# Outline: as §1
# [37] = target: Gal(b1-4)GlcNAc(b1-2)[Gal(b1-4)GlcNAc(b1-6)]Man(a1-6)[Gal(b1-4)GlcNAc(b1-2)Man(a1-3)]Man(b1-4)GlcNAc(b1-4)GlcNAc
# Outline: as §1
# [38] = target: Gal(b1-4)GlcNAc(b1-2)[Gal(b1-4)GlcNAc(b1-6)]Man(a1-6)[Gal(b1-4)GlcNAc(b1-2)Man(a1-3)]Man(b1-4)GlcNAc(b1-4)[Fuc(a1-6)]GlcNAc
# Outline: as §1
# [39] = target: Gal(b1-4)GlcNAc(b1-2)[Gal(b1-4)GlcNAc(b1-6)]Man(a1-6)[GlcNAc(b1-4)][Gal(b1-4)GlcNAc(b1-2)Man(a1-3)]Man(b1-4)GlcNAc(b1-4)GlcNAc
# Outline: as §1
# [40] = target: Gal(b1-4)GlcNAc(b1-2)[Gal(b1-4)GlcNAc(b1-6)]Man(a1-6)[GlcNAc(b1-4)][Gal(b1-4)GlcNAc(b1-2)[Gal(b1-4)GlcNAc(b1-4)]Man(a1-3)]Man(b1-4)GlcNAc(b1-4)[Fuc(a1-6)]GlcNAc
# Outline: as §1
# [41] = target: Gal(b1-4)GlcNAc(b1-3)Gal(b1-3)GalNAc
# Outline: as §1
# [42] = target: Gal(b1-4)GlcNAc(b1-3)Gal(b1-3)GlcNAc
# Outline: as §1
# [43] = target: Gal(b1-4)GlcNAc(b1-3)Gal(b1-4)Glc
# Outline: as §1
# [44] = target: Gal(b1-4)GlcNAc(b1-3)Gal(b1-4)GlcNAc
# Outline: as §1
# [45] = target: Gal(b1-4)GlcNAc(b1-3)Gal(b1-4)GlcNAc(b1-2)Man(a1-3)[Gal(b1-4)GlcNAc(b1-3)Gal(b1-4)GlcNAc(b1-2)Man(a1-6)]Man(b1-4)GlcNAc(b1-4)GlcNAc
# Outline: as §1
binder,measurement,setting,value
Epa2 (Candida glabrata) (protein) MGSSHHHHHHSSGLVPRGSHMASSKDPTSFPMGCSPQVLKTQPGLAVKLYSYGHPVPGCAYNTYQYPDFPRSGYKKERKLADITGVNGRIDIDLKPNDPCRVLSGNLPSNYNYQNTLTYTNFTMILYGYFQPKVTGYHTFNLEADDLLFMNLGAGNAFDCCRAESTLDNFGNYQSYSIWGTDKATADLTVFLVSGIYYPIRLFYVNRDNNAVLDFSFSTEFNKEIIHDFTSYFFSASDEEQCPGNI,glycan array binding signal (z-score),[1],-0.542
same,glycan array binding signal (z-score),[2],-0.554
same,glycan array binding signal (z-score),[3],-0.1
same,glycan array binding signal (z-score),[4],-0.236
same,glycan array binding signal (z-score),[5],-0.386
same,glycan array binding signal (z-score),[6],0.301
same,glycan array binding signal (z-score),[7],-0.476
same,glycan array binding signal (z-score),[8],-0.448
same,glycan array binding signal (z-score),[9],0.152
same,glycan array binding signal (z-score),[10],0.09
same,glycan array binding signal (z-score),[11],0.213
same,glycan array binding signal (z-score),[12],0.015
same,glycan array binding signal (z-score),[13],-0.297
same,glycan array binding signal (z-score),[14],-0.254
same,glycan array binding signal (z-score),[15],0.354
same,glycan array binding signal (z-score),[16],0.003
same,glycan array binding signal (z-score),[17],-0.356
same,glycan array binding signal (z-score),[18],-0.198
same,glycan array binding signal (z-score),[19],-0.628
same,glycan array binding signal (z-score),[20],-0.126
same,glycan array binding signal (z-score),[21],-0.312
same,glycan array binding signal (z-score),[22],-0.247
same,glycan array binding signal (z-score),[23],-0.354
same,glycan array binding signal (z-score),[24],-0.25
same,glycan array binding signal (z-score),[25],-0.945
same,glycan array binding signal (z-score),[26],-0.911
same,glycan array binding signal (z-score),[27],-1.06
same,glycan array binding signal (z-score),[28],-0.652
same,glycan array binding signal (z-score),[29],-0.077
same,glycan array binding signal (z-score),[30],-0.416
same,glycan array binding signal (z-score),[31],-0.753
same,glycan array binding signal (z-score),[32],-0.741
same,glycan array binding signal (z-score),[33],0.106
same,glycan array binding signal (z-score),[34],-0.495
same,glycan array binding signal (z-score),[35],-0.305
same,glycan array binding signal (z-score),[36],-0.379
same,glycan array binding signal (z-score),[37],-0.121
same,glycan array binding signal (z-score),[38],0.429
same,glycan array binding signal (z-score),[39],-1.25
same,glycan array binding signal (z-score),[40],0.04
same,glycan array binding signal (z-score),[41],0.503
same,glycan array binding signal (z-score),[42],-0.725
same,glycan array binding signal (z-score),[43],0.248
same,glycan array binding signal (z-score),[44],-0.158
same,glycan array binding signal (z-score),[45],1.61

# Shown tab-delimited: entries from further up
binder	measurement	setting	value
Epa2 (Candida glabrata) (protein) MGSSHHHHHHSSGLVPRGSHMASSKDPTSFPMGCSPQVLKTQPGLAVKLYSYGHPVPGCAYNTYQYPDFPRSGYKKERKLADITGVNGRIDIDLKPNDPCRVLSGNLPSNYNYQNTLTYTNFTMILYGYFQPKVTGYHTFNLEADDLLFMNLGAGNAFDCCRAESTLDNFGNYQSYSIWGTDKATADLTVFLVSGIYYPIRLFYVNRDNNAVLDFSFSTEFNKEIIHDFTSYFFSASDEEQCPGNI	glycan array binding signal (z-score)	[7]	-0.476
same	glycan array binding signal (z-score)	[8]	-0.448
same	glycan array binding signal (z-score)	[9]	0.152
